Test [1] addresses T1, HA-MAGEB2 (Melanoma-Associated Antigen B2) (UniProt O15479).
T1 sequence: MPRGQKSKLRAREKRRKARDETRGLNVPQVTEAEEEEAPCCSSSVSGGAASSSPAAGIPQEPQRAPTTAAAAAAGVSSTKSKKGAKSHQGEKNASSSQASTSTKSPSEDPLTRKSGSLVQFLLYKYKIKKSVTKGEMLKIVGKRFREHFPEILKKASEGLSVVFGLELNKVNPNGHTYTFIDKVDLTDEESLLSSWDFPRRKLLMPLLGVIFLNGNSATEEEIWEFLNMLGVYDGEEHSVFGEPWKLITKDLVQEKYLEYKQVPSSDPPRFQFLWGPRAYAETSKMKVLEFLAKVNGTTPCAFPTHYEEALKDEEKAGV
The experiment in a line: co-IP; total cell extracts precleared, incubated with anti-Flag or anti-HA 15 min at 4 °C, protein A/G beads overnight; forward and reverse.

In test [2] the target is T2, Flag-ZNF276 (zinc finger protein 276) (UniProt Q8N554).
T2 sequence: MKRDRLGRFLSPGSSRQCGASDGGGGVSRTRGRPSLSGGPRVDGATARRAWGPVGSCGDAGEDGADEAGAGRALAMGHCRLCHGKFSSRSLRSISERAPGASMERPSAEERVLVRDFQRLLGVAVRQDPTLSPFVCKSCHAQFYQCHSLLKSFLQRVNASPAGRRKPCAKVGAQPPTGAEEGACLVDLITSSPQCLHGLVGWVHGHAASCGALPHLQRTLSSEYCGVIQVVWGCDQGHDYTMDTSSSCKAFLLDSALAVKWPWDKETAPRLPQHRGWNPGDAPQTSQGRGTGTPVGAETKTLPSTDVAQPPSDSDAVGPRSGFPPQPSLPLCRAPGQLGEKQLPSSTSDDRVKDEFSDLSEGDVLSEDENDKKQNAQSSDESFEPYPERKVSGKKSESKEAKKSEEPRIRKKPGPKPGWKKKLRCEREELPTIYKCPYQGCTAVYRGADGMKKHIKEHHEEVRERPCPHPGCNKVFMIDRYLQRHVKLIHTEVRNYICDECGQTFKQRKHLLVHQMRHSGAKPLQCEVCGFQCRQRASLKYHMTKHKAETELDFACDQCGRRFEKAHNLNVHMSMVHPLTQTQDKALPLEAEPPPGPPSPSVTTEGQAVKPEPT
The description is as above.

Experimental findings from article PMC9463175 are described below.

These are yes or no findings as the source states them, for the method shown. Binding seen in cells or lysates may run through a third protein. Some binding calls cover weakened binding; strength is not graded here. Where a sequence is shown, tags or fusion partners need not be part of it.

B1: Flag-ZNF276 (zinc finger protein 276) (protein, UniProt Q8N554 1-614)
chain: MKRDRLGRFLSPGSSRQCGASDGGGGVSRTRGRPSLSGGPRVDGATARRAWGPVGSCGDAGEDGADEAGAGRALAMGHCRLCHGKFSSRSLRSISERAPGASMERPSAEERVLVRDFQRLLGVAVRQDPTLSPFVCKSCHAQFYQCHSLLKSFLQRVNASPAGRRKPCAKVGAQPPTGAEEGACLVDLITSSPQCLHGLVGWVHGHAASCGALPHLQRTLSSEYCGVIQVVWGCDQGHDYTMDTSSSCKAFLLDSALAVKWPWDKETAPRLPQHRGWNPGDAPQTSQGRGTGTPVGAETKTLPSTDVAQPPSDSDAVGPRSGFPPQPSLPLCRAPGQLGEKQLPSSTSDDRVKDEFSDLSEGDVLSEDENDKKQNAQSSDESFEPYPERKVSGKKSESKEAKKSEEPRIRKKPGPKPGWKKKLRCEREELPTIYKCPYQGCTAVYRGADGMKKHIKEHHEEVRERPCPHPGCNKVFMIDRYLQRHVKLIHTEVRNYICDECGQTFKQRKHLLVHQMRHSGAKPLQCEVCGFQCRQRASLKYHMTKHKAETELDFACDQCGRRFEKAHNLNVHMSMVHPLTQTQDKALPLEAEPPPGPPSPSVTTEGQAVKPEPT
Consider B1, for which the binding entry in test [1] is “binds”.

B2: HA-MAGEB2 (Melanoma-Associated Antigen B2) (protein, UniProt O15479 1-319)
chain: MPRGQKSKLRAREKRRKARDETRGLNVPQVTEAEEEEAPCCSSSVSGGAASSSPAAGIPQEPQRAPTTAAAAAAGVSSTKSKKGAKSHQGEKNASSSQASTSTKSPSEDPLTRKSGSLVQFLLYKYKIKKSVTKGEMLKIVGKRFREHFPEILKKASEGLSVVFGLELNKVNPNGHTYTFIDKVDLTDEESLLSSWDFPRRKLLMPLLGVIFLNGNSATEEEIWEFLNMLGVYDGEEHSVFGEPWKLITKDLVQEKYLEYKQVPSSDPPRFQFLWGPRAYAETSKMKVLEFLAKVNGTTPCAFPTHYEEALKDEEKAGV
Turning to B2, in test [2], the binding result was “binds”.
